Test results reported in PMC4607679, “Intestinal Absorption of Ergostane and Lanostane Triterpenoids from Antrodia cinnamomea Using Caco-2 Cell Monolayer Model” (Natural Products and Bioprospecting, 2015).

How the values were obtained:
[1] = system: Caco-2 cell monolayer; experiment: Bidirectional transport across the Caco-2 cell monolayer (LC/MS/MS); settings: marker compound, AP to BL (Table S5)
[2] = as above; settings: human, Caco-2
[3] = in vitro; settings: human, Caco-2

- PAB value of marker compound [1]: 7.76 ± 4.65 × 10^−7 cm/s
- Papp A→B at 30 min [2]: 0.71 ± 0.14 ×10⁻⁶ cm/s
- Papp A→B at 60 min [2]: 0.736 ± 0.152 ×10⁻⁶ cm/s
- Papp A→B at 120 min [2]: 0.776 ± 0.465 ×10⁻⁶ cm/s
- Papp A→B at 90 min [3]: 0.796 ± 0.104 ×10⁻⁶ cm/s
Structure (SMILES): CC(C)NCC(O)COc1ccc(CC(N)=O)cc1 (centres unmarked) [atenolol, reference compound]
